Values quoted from earlier work in patent publication US20100112724A1, “METHOD OF DETERMINATION OF PROTEIN LIGAND BINDING AND OF THE MOST PROBABLE LIGAND POSE IN PROTEIN BINDING SITE” (priority 2007, published 2010).

Test system: protein of the protein-ligand complex (pdb code)
Settings: experimentally known binding affinity of test and training protein-ligand complexes selected from PDB, structures described in publications [7, 8, 9]

| ΔG, kcal/mol (free energy of ligand-protein binding) [kcal/mol] | Compound |
| --- | --- |
| -8.6 | N=C(N)c1ccc(C[C@@H](NC(=O)CNS(=O)(=O)c2ccc3ccccc3c2)C(=O)N2CCCCC2)cc1 [1PPC] |
| -11.5 | N=C(N)c1ccc(C[C@@H](NC(=O)CNS(=O)(=O)c2ccc3ccccc3c2)C(=O)N2CCCCC2)cc1 [1ETS] |
